Experimental findings from publication PMC8160793 (Biomolecules, 2021) are described below.

HELM strings list residues between dots; [ac] is acetyl, [am] amide, other brackets name non-standard units.

The series is described as follows: peptide synthesis. The settings on record: whole synthesis, RP-HPLC.

Turning to “PEPTIDE1{F.L.K.L.L.K.K.L.[Pen].[am]}$$$$V2.0”, the “final HPLC purity” value came out at 100.000%.
For “PEPTIDE1{F.L.K.L.L.K.K.[Pen].L.[am]}$$$$V2.0”, the “final HPLC purity” value was 100.000%.
The same measure for “PEPTIDE1{F.L.K.L.L.[Pen].K.L.L.[am]}$$$$V2.0”: 100.000%; for “PEPTIDE1{F.L.K.L.[Pen].K.K.L.L.[am]}$$$$V2.0”: 100.000%; for “PEPTIDE1{F.[Pen].K.L.L.K.K.L.L.[am]}$$$$V2.0”: 98.450%.
For the substance PEPTIDE1{L.K.L.L.K.K.L.L.[am]}$$$$V2.0, the “final HPLC purity” value worked out at 96.070%.
Consider “PEPTIDE1{L.K.[Pen].L.K.K.L.L.[am]}$$$$V2.0”, for which the “final HPLC purity” value came to 100.000%.
For the substance “PEPTIDE1{[Pen].L.K.A.K.K.L.L.[am]}$$$$V2.0”, the “final HPLC purity” value is 96.250%.
As for “PEPTIDE1{[Pen].L.K.L.L.K.K.L.L.[am]}$$$$V2.0”, the figure is 98.900%.
